The assay deals with X-linked DEAD-box helicase 3 (DDX3X) (UniProt O00571). The experiment in a line: co-IP; in PANC-1 cells; which protein was precipitated and which was blotted is not told in the text shown.

Sequences of proteins named here, by UniProt entry; tags and fusion partners are left off.
UniProt O00571: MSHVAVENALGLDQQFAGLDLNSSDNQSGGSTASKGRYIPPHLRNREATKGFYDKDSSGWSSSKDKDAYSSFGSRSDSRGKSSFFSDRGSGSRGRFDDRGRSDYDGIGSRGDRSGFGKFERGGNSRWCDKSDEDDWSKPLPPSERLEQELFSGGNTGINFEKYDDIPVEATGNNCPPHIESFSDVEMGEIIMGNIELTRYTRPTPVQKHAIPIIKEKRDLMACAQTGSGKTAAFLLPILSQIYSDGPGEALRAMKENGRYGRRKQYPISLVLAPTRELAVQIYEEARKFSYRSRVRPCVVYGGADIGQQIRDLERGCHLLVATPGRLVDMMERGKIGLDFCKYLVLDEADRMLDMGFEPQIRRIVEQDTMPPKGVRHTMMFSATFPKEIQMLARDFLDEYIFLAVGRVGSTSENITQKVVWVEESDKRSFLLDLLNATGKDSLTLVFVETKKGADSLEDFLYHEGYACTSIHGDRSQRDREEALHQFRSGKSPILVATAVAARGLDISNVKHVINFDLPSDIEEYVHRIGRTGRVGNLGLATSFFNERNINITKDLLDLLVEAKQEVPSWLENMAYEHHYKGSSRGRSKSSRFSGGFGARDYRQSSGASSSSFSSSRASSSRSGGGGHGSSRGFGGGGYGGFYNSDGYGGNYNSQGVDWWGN
UniProt Q9NRC8: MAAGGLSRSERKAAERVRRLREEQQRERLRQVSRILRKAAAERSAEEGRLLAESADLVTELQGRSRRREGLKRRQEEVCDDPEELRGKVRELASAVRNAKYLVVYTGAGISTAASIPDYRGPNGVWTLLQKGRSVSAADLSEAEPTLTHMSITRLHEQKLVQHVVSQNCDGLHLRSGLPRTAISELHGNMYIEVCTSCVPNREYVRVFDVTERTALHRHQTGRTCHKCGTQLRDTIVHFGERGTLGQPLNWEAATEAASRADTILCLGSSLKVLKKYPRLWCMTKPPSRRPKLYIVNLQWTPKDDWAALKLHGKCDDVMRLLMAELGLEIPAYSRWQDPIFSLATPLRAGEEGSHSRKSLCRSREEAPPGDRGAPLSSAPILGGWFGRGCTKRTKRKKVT

No constants are given. Whether binding was seen depends on the method and setting. In cells and extracts the contact can be indirect. Some binding calls cover weakened binding; strength is not graded here.

As for “sirtuin 7 (SIRT7) (from UniProt Q9NRC8 1-400)”, the binding result was “binds”.

Source of the values: publication PMC10844636.
